Assay [1] addresses Mitochondrial calcium uniporter (MCU) (human (endogenous in HepG2)) (UniProt Q8NE86). Description: co-IP; MCU, HA or isotype IgG antibody (5 µg) on protein A/G magnetic beads, incubated with 0.5-1.0 mg protein from HA-VDAC1-overexpressing HepG2 cells (SDS-free lysis buffer) for 12-18 h at 4 °C; immunoblot; cells treated with siMCU or siVDAC1, with or without Cd exposure.
The target in assay [2] is VDAC1-ECFP (UniProt P21796). Description: FRET or BRET; acceptor photobleaching FRET in living HepG2 cells cotransfected with VDAC1-ECFP (donor) and MCU-EYFP (acceptor) for 48 h; EYFP bleached at 514 nm; efficiency normalized to ECFP+MCU-EYFP.
Assay [3] addresses HA-VDAC1 (voltage-dependent anion-selective channel protein 1 fused with an HA tag) (human) (UniProt P21796). In words: co-IP; MCU, HA or isotype IgG antibody (5 µg) on protein A/G magnetic beads, incubated with 0.5-1.0 mg protein from HA-VDAC1-overexpressing HepG2 cells (SDS-free lysis buffer) for 12-18 h at 4 °C; immunoblot; cells treated with siMCU or siVDAC1, with or without Cd exposure.

By UniProt entry, the sequences of proteins in these tests, tags left out. Residues count along the entry.
UniProt Q8NE86, residues 51-351: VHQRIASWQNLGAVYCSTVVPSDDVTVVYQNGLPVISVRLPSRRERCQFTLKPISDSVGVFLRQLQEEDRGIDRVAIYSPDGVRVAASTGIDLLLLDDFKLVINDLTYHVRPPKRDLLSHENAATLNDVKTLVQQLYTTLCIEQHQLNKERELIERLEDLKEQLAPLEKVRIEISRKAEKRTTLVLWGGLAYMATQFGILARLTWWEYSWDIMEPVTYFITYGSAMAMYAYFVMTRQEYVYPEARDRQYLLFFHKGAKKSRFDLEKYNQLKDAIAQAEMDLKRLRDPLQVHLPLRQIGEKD
UniProt P21796: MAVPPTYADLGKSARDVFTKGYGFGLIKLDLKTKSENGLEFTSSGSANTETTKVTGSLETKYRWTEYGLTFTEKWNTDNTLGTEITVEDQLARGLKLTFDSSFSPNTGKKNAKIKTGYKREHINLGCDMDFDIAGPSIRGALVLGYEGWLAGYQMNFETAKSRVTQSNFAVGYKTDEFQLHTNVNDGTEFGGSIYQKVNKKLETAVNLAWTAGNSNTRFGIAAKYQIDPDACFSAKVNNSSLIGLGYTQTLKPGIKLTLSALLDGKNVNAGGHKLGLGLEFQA

Results are given in words; binding and its absence hold for the method and conditions named. In cells and extracts the contact can be indirect. Some entries that bind do so weakly or less than the wild type.

With “HA-VDAC1 (voltage-dependent anion-selective channel protein 1 fused with an HA tag) (from UniProt P21796 1-283)”, the binding entry in assay [1] was “binds”. On to MCU-EYFP (from UniProt Q8NE86 51-351), for which the binding entry in assay [2] is “binds”. With “Mitochondrial calcium uniporter (MCU) (from UniProt Q8NE86 51-351)”, the binding result in assay [3] was “binds”.

Source of the values: paper PMC9982555.
